Assay results from paper PMC10163288.
The list shows a part of the results.

B1: il10ra_site1_sap_20_mot_HHH_b2_00984_000000042_0001_1_20_H_._ems_3hC_696_af2_0001_0000100003_0000002_0_0001_af2pred_0001 (protein)
chain: SSSSDMEELERLSREALRLLKEGNPEEAQKVVEEAEELARELNNLNARAVIEYLARLIERSSSSS
B2: il10ra_site1_normal_mot_2c1a291787c6f40772924d4e9068d803_0001_af2_000000187_0001_34_48_H_._HHH_b2_03338_0002_0000400034_0000001_0 (protein)
chain: SSSSDEDEELVERLLEEAKESDDEKERFELSAEAYLVADESNNDELRRLIIEVNAELAQKSSSSS
B3: il10ra_site1_normal_mot_HHH_b2_00984_000000042_0001_1_20_H_._HHH_b2_07840_0001_0000100001_0000001_0 (protein)
chain: SSSSSSDLEELTEELREAVEEGDTELASQIAQEAVRLAIRLSDQEALQELWELIRLVASSSSSSS
B4: il10ra_site1_sap_11_mot_HHH_b1_05357_000000034_0001_23_39_H_._HHH_b2_02685_0001_0000300029_0000002_0_0001_af2pred_0001 (protein)
chain: SSSSDELELSVRMALLSARLAAELGDPELAEAAIRDAKVAAKYNNNEELRKEIEELEEEIRSSSS
B5: il10ra_site1_sap_16_mot_HHH_b2_05009_af2_000000250_0001_40_57_H_._2bb1a06cad284b560c121c567ec17a85_0001_0001_0000800016_0000002_0_0001 (protein)
chain: SSSSSDKRERLLRLVLELARAFIRGDEELIKELLEEVEEIAEELNDERVLKMLEDLKKALSSSSS
B6: il10ra_site1_normal_mot_HHH_b1_05937_af2_000000262_0001_20_37_H_._HHH_b2_04780_af2_0001_0000400025_0000002_0 (protein)
chain: SSSSDEEEEELERLKEEIEEAIKKNDEELALRLIIELLRLAFRARDPEAVKAAWELAKLIESSSS
B7: il10ra_site1_sap_14_mot_HHH_b1_02492_000000051_0001_1_21_H_._HHH_b2_05983_0001_0000300015_0000001_0_0001_af2pred_0001 (protein)
chain: SSSSDEEEEIEELFEEARKLLEEGDDEEALRVLRELVRLAFRTGDPEATRLALELAELLKGSSSS
B8: il10ra_site1_normal_mot_HHH_b2_03495_af2_000000088_0001_20_36_H_._HHH_b1_05664_0001_0000100005_0000001_0 (protein)
chain: SSSSDEEVQEYVEEVEEQLRELAKKNPEEFSQLLFEATRFVWERNDKEALALLNKLALELKSSSS
B9: il10ra_site1_sap_17_mot_ems_3hM_2400_000000184_0001_1_19_H_._HHH_b2_02810_0001_0000100004_0000001_0_0001_af2pred_0001 (protein)
chain: SSSSSEEKLEAAIKFIEWLIEAGDPEAARLLAEIALELARDLNDEEVEERVRELLREIEENSSSS
B10: il10ra_site1_normal_mot_HHH_b1_03754_af2_000000016_0001_40_56_H_._HHH_b2_05518_0001_0000600049_0000001_0_af2pred_dldesign_0_af2pred (protein)
chain: SSSSSPEKEALERALKYLEFLKEAGDLEAATRHARALLALAKKWKDEETIKRVEALLKELSSSSS
B11: il10ra_site1_normal_mot_HHH_b1_03900_000000129_0001_1_16_H_._HHH_b1_05120_af2_0001_0001200013_0000001_0 (protein)
chain: SSSSDEEEIYELIKELARLLIRNDPERAEELLEELRELAEKLNDPAVERAVEILEEALEATSSSS
B12: il10ra_site1_normal_mot_HHH_b2_04680_000000215_0001_1_16_H_._HHH_b2_04874_af2_0001_0000100001_0000002_0 (protein)
chain: SSSSSSHELTREAYELLREAFEIPDEEEVEKLLEEALQLAEEANNFALAFAIRLALKSLESSSSS
B13: il10ra_site1_sap_13_mot_HHH_b2_00564_af2_000000012_0001_18_34_H_._HHH_b2_04461_af2_0001_0000500018_0000001_0_0001_af2pred_0001 (protein)
chain: SSSSDKEQEEEFEQLTERAEELGDKSTAWLIELALEAYRITNDERALEIARRLLRLAEEESSSSS
B14: il10ra_site1_sap_24_mot_HHH_b2_02354_af2_000000157_0001_40_56_H_._HHH_b2_02898_af2_0001_0000900025_0000001_0_0001 (protein)
chain: SSSSSEEERYAELSLMFARQLIEAGSEEAAREFIRIAIDVVKRLNDPEVAEQLEELLEELSSSSS
B15: il10ra_site1_normal_mot_b26a303360aa2756ef5b79665ce52f45_0001_000000179_0001_1_11_H_._HHH_b1_01396_0001_0000100005_0000001_0 (protein)
chain: SSSSSSDEENRRIIELIRKAAHIDDPEEAREILEEAIELAEEANNPVLLFSAEHLLRADSSSSSS
B16: il10ra_site1_normal_mot_HHH_b2_07336_af2_000000224_0001_1_17_H_._HHH_b1_08450_af2_0001_0000600020_0000001_0 (protein)
chain: SSSSDLLHRVAELLRRASRLLFRGNPEEARKLIEEALELAEEAGDEKAKELLEHFLEALENSSSS
B17: il10ra_site1_normal_mot_HHH_b2_02693_af2_000000213_0001_19_35_H_._HHH_b2_00006_af2_0001_0000200009_0000001_0_af2pred_0001 (protein)
chain: SSSSDEEVEERVKELLEEAKRIEDEEEVLQILAEAARLAHELNDEELIHEVLRVAIELLRSSSSS
B18: il10ra_site1_sap_21_mot_HHH_b1_05254_000000006_0001_1_19_H_._HHH_b2_07794_af2_0001_0000600029_0000001_0_0001_af2pred_0001 (protein)
chain: SSSSDEEVEELIEELEELREHVSPEDRRFIELTLRMAKFVLEAGNPEVAKYLLEAALEAINSSSS
B19: il10ra_site1_sap_22_mot_HHH_b2_07569_000000265_0001_38_56_H_._HHH_b2_02901_0001_0000200009_0000001_0_0001 (protein)
chain: SSSSSDVEEEIRELLEEAKRIEDPEEAKEVIMRAAALAARLRDPHLSMEVIEVYAELNQRSSSSS
B20: il10ra_site1_sap_21_mot_HHH_b1_07380_000000129_0001_1_20_H_._HHH_b2_01666_0001_0000100006_0000002_0_0001 (protein)
chain: SSSSSDEEEEEVEELLEEAKRIEDPRELSKVLLKAVQIALESNDPELFEEVWEVAMKLFNSSSSS
B21: il10ra_site1_sap_9_mot_HHH_b1_00456_000000263_0001_1_17_H_._HHH_b2_06560_0001_0000300027_0000001_0_0001 (protein)
chain: SSSSDKEVLLEAARLLTKAFQIEDPEEARKVVEKALELAEEYNDEELARFIQRLLKTLEDSSSSS
B22: il10ra_site1_sap_21_mot_HHH_b2_05984_000000071_0001_38_52_H_._HHH_b1_08773_0001_0000300018_0000001_0_0001_af2pred_0001 (protein)
chain: SSSDETKEEVEKLLREVEELIEQGNEEEAHQLLLEAVLVAAKGNDEEAFRLVMELYLRLENSSSS
B23: il10ra_site1_normal_mot_HHH_b2_00622_af2_000000153_0001_40_57_H_._HHH_b1_08750_0001_0000700033_0000001_0_af2pred_0001 (protein)
chain: SSSSSSEEAKRVLEILIRAAKQIEDPEKAKLALRAAKLSAESAGDEELLEEIRQLLEELNSSSSS
B24: il10ra_site1_normal_mot_e1dd4851c59bc1cdde016f988f6856bd_0001_1_000000200_0001_16_31_H_._HEEHE_0473_0001_0000400018_0000001_0_af2pred_0001 (protein)
chain: DEEREVELALRFLARAAGVKSVEVTTENGEVTVTVENVSPEAKETIEAAVLALRALGLNVSFETR
B25: il10ra_site1_normal_mot_HHH_b1_04704_af2_000000076_0001_43_57_H_._HHH_b2_07817_0001_0000100008_0000001_0_af2pred_0001 (protein)
chain: SSSSSDVREIFERVKELIEEALQIEDPEEREEVLEEARELAEEGNNELLELAVEYVARRESSSSS
B26: il10ra_site1_sap_22_mot_HHH_b1_01307_000000115_0001_1_18_H_._HHH_b2_05711_0001_0000100007_0000001_0_0001 (protein)
chain: SSSSNLERSVKRMLEAIRELLEQGDPEYARLALRFAKAAAEAQNNEELRKEIEELEQEVNSSSSS
B27: il10ra_site1_sap_17_mot_HHH_b1_06789_af2_000000041_0001_1_20_H_._6a059796e6651356ca47b1ab8a1c6dcd_0001_0001_0000800021_0000001_0_0001 (protein)
chain: SSSSDEEELKELLEELRKLAEEGDEEKFLRLAMELLHLIAQLGDQEAFEELWRLIKEFAEKSSSS
B28: il10ra_site1_sap_23_mot_HHH_b1_05595_af2_000000085_0001_42_56_H_._HHH_b2_07888_af2_0001_0000200007_0000002_0_0001 (protein)
chain: SSSSEREEVLELIKRVFRLLLRGNQEEAERLLEEVERVAEENNDPELQRAVEILRQSVEANSSSS
B29: il10ra_site1_sap_17_mot_HHH_b1_05357_000000034_0001_23_39_H_._HHH_b2_02316_0001_0000400035_0000001_0_0001 (protein)
chain: SSSSDEEEEELEELIKQIEEAIKKNDRETALRLIIELIRLAFQARDPEALRAAWELAKKIESSSS
B30: il10ra_site1_sap_16_mot_HHH_b1_00999_000000080_0001_41_55_H_._HHH_b1_01870_0001_0000800024_0000001_0_0001 (protein)
chain: SSSSSSEEELEELIERLKEALEEGDEELIIELLLKLARLAVRLNDHEATRIIMEVAEKLRSSSSS
B31: il10ra_site1_sap_19_mot_HHH_b2_08144_af2_000000046_0001_38_52_H_._HHH_b2_04324_0001_0000300022_0000001_0_0001 (protein)
chain: SSSSTLEELTRAALRIAKQALEWGDPEAARLLLEALLQLLRNEGNEELVEEVEELLEEVRNSSSS
B32: il10ra_site1_sap_21_mot_HHH_b1_08325_000000134_0001_1_19_H_._HHH_b1_06728_0001_0000200010_0000002_0_0001 (protein)
chain: SSSSSSDVEEEVEELLEEAKHIEDPRKLTRLLQEAVRNAIQVGDPEVLREVWEVVHKLSSSSSSS
B33: il10ra_site1_sap_23_mot_ems_3hM_235_000000244_0001_46_64_H_._HHH_b2_04652_af2_0001_0000900062_0000001_0_0001 (protein)
chain: SSSSTRRRIYELSREAVELASEGNPEEAKEVLEEALELAEEAGNQVLLFVLRRVLELIEGSSSSS
B34: il10ra_site1_normal_mot_HHH_b2_08265_af2_000000206_0001_22_38_H_._HHH_b2_05887_0001_0000200025_0000002_0 (protein)
chain: SSSSSDEEEVEELTREIERLLEEGDLEEAARLIQELLRVAYENKDQEAIQLAWELAQLAKSSSSS
B35: il10ra_site1_sap_13_mot_HHH_b2_05686_000000041_0001_1_18_H_._HHH_b1_05792_0001_0000400018_0000002_0_0001 (protein)
chain: PERLEELKELLEKLNTPVARELLRLIEELEERGVPPNHILQRAVRYALRAGDEEVLRALWKVALK
B36: il10ra_site1_normal_mot_HHH_b2_00479_000000091_0001_1_12_H_._HHH_b2_05176_0001_0000200017_0000002_0 (protein)
chain: SSSSTEEFDELYRLARKALELRANGNPEEAEKVLEEAVELARELGDFATLFAIEHLLRILGSSSS
B37: il10ra_site1_normal_mot_HHH_b2_07569_000000265_0001_38_56_H_._HHH_b2_06565_0001_0000500047_0000002_0 (protein)
chain: SSSSSDETEEEVEELLEEAKHIEDPEELAEVLLEALQVALEEGDQELVQLVWEVIKRLFSSSSSS

Each binder was assayed against il10ra, Q13651 (assay: yeast display titration).

Binder	apparent Kd
B1	inactive: no binding seen
B2	inactive: no binding seen
B3	inactive: no binding seen
B4	inactive: no binding seen
B5	inactive: no binding seen
B6	inactive: no binding seen
B7	inactive: no binding seen
B8	inactive: no binding seen
B9	inactive: no binding seen
B10	inactive: no binding seen
B11	inactive: no binding seen
B12	inactive: no binding seen
B13	inactive: no binding seen
B14	inactive: no binding seen
B15	inactive: no binding seen
B16	inactive: no binding seen
B17	inactive: no binding seen
B18	inactive: no binding seen
B19	inactive: no binding seen

Binder	apparent Kd
B20	inactive: no binding seen
B21	inactive: no binding seen
B22	inactive: no binding seen
B23	inactive: no binding seen
B24	inactive: no binding seen
B25	inactive: no binding seen
B26	inactive: no binding seen
B27	inactive: no binding seen
B28	inactive: no binding seen
B29	inactive: no binding seen
B30	inactive: no binding seen
B31	inactive: no binding seen
B32	inactive: no binding seen
B33	inactive: no binding seen
B34	inactive: no binding seen
B35	inactive: no binding seen
B36	inactive: no binding seen
B37	inactive: no binding seen

Reprinted at random: three entries already listed, in no set order.
Binder	apparent Kd
B18	inactive: no binding seen
B33	inactive: no binding seen
B24	inactive: no binding seen
